{"source": "the supplement of paper PMC8846439", "note": "Some of the results follow. Many values rest on one well or one pass, so single values are uncertain.", "data": [{"tested_on": "Trypanosoma brucei brucei bloodstream form L262P (kDNA-independent)", "assay": "viability Z-score (nuclei count per well, median-polish normalised, relative to plate distribution); higher = more viable parasites (negative = growth inhibition)", "settings": "4 days; compound concentration: 10 µM (some Prestwick/PKE rows may be 1 µM / not distinguished)", "values": [{"smiles": "N#CC(=NNc1ccc(Cl)cc1)C(N)=S", "viability Z-score": -4.76}, {"smiles": "O=[N+]([O-])c1cccc(NCc2ccccc2Cl)c1", "viability Z-score": -2.67}, {"smiles": "O=Nc1ccc(O)c2ncccc12", "viability Z-score": -4.03}, {"smiles": "O=C(C=1/C=C(/[Cl])C=CC=1N[C@]([H])(CC(=O)C=2C=CC=CC=2)C(=O)O)C=3C=CC=CC=3", "viability Z-score": -5.27}, {"smiles": "CCOC(=O)c1c(NC(=O)CSc2nnc(-c3ccco3)o2)sc(C)c1C", "viability Z-score": -3.17}, {"smiles": "O=C1N(C)C(=O)C[C@]1([H])C2=C/C=C(/C)C=C2", "viability Z-score": -3.62}, {"smiles": "CCN(CC)CC(=O)N(CC(=O)Nc1c(C)cc(C)cc1C)C1CCCCC1", "viability Z-score": -5.61}, {"smiles": "CC12C[C@H]3C[C@@H](C1)CC(CC(=O)O)(C3)C2", "viability Z-score": -1.48}, {"smiles": "C[C@@H]1CN(C(=S)c2cccc([N+](=O)[O-])c2)C[C@H](C)O1", "viability Z-score": -2.02}, {"smiles": "CO[C@@H]1[C@H](N(C)C(=O)c2ccccc2)C[C@H]2O[C@]1(C)n1c3ccccc3c3c4c(c5c6ccccc6n2c5c31)C(=O)NC4", "viability Z-score": -3.69}, {"smiles": "CC=2C=CC(NC(=O)NC=1/C=C(/[F])C=CC=1)=NC=2", "viability Z-score": -1.88}, {"smiles": "O=c1c(-c2ccc(O)cc2)coc2cc(O)cc(O)c12", "note": "[Genistein]", "viability Z-score": -2.35}, {"smiles": "[Cl]C=2C=CC(CN/C1=N/OC(C)=C1)=CC=2", "viability Z-score": -3.62}, {"smiles": "C=1\\2/[C@]([C@@H](OC(=O)[C@H](CC)C)C[C@@H](\\C1)O)([C@@H](CC[C@H](C[C@H](CC(=O)O)O)O)[C@H](\\C=C2)C)[H]", "note": "[Pravastatin]", "viability Z-score": -4.37}]}]}
